Results are given as percent effect.
The record does not define 0% and 100%; most values in the screen are far below 50% and negative numbers occur (in some assays of this library far below -100).
Compounds were drawn at random from those tested, without regard to their results.
A dash means the value is not listed here; it may have been measured.

Sequences of proteins named here, by UniProt entry; tags and fusion partners are left off. Residues count along the entry.
UniProt Q8IDJ8, 1-583: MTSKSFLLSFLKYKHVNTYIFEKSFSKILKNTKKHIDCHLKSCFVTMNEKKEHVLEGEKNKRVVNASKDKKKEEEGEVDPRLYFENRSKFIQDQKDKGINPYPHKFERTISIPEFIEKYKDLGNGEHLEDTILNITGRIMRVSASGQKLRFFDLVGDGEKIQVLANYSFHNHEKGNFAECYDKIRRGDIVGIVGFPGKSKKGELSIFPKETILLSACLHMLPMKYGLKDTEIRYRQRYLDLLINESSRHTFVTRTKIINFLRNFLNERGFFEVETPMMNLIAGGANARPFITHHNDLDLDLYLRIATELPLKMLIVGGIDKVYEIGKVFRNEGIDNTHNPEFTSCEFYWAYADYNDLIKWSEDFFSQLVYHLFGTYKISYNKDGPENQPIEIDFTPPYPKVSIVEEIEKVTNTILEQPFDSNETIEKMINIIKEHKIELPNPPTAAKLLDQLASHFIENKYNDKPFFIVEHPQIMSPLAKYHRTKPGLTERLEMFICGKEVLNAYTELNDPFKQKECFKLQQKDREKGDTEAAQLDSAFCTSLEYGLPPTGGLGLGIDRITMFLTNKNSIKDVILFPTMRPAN
UniProt P9WNZ1, whole entry: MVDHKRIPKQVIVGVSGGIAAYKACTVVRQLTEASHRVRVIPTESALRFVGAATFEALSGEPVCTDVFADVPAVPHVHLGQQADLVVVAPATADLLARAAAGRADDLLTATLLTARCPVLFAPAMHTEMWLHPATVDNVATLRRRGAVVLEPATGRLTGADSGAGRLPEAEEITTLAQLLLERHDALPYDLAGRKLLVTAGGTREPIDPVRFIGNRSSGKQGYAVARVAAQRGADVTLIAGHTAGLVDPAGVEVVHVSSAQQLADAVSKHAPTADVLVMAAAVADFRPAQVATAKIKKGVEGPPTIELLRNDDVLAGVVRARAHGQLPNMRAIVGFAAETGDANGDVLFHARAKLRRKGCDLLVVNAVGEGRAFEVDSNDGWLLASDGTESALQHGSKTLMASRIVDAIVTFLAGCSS

PfKRS1: 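Enzyme assay of the cytosolic lysyl-tRNA synthetase in 384-well plates, read by luminescence. Target: Lysine-tRNA ligase, Plasmodium falciparum 3D7 (UniProt Q8IDJ8). Tested at 30 µM. Direction is inferred from only a few compounds that gave an IC50; most scored high, so higher reads as stronger inhibition. Size under these conditions: about 69,000 compounds, about 49 of them at 50% or above in at least one test.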
Toxoplasma: 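Assay of Toxoplasma gondii numbers, read through their beta-galactosidase reporter with a colour substrate. Concentration: 10 µM. The record gives no direction; the compounds picked for IC50 retests had high values, so higher reads as fewer parasites. About 67,000 compounds were tested under these conditions; 0.38% (about 260) showed 50% or more at least once.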
CoaBC: 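Coenzyme A biosynthesis protein CoaBC, Mycobacterium tuberculosis (UniProt P9WNZ1). Enzyme assay of CoaBC with a phosphate dye (Biomol Green) read at 650 nm. Compounds at 30 µM. Higher reads as stronger inhibition, judged from the few compounds that gave an IC50. Most strong results did not repeat in a second test. About 67,000 compounds were tested under these conditions; 0.06% (about 40) showed 50% or more at least once.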

| compound | PfKRS1 | Toxoplasma | CoaBC |
|---|---|---|---|
| `CC(=O)N1CCN(c2ccccc2CNc2cncc(C)c2)CC1` | 1.33 | 2.498 | 0 |
| `Cc1cc(C(=O)Nc2ccc3c(c2)N(C)CCN(C)C3)on1` | -0.02347 | 7.169 | -17.51 |
| `COc1cccc(CC2CN(C(=O)c3ccnn3C)CCO2)c1` (centres unmarked) | 4.98 | 4.282 | -5.447 |
| `Cc1sc(Br)cc1S(=O)(=O)NCCCN` | 3.215 | - | 2.733 |
| `CC(CN1CCCC1=O)NC(=O)NCc1ccccc1-n1cccn1` (centres unmarked) | 0.2368 | 5.385 | 1.611 |
| `CN(C)CC1CN(Cc2cc(Cl)cc3cccnc23)CCO1` (centres unmarked) | 3.644 | 3.776 | - |
| `CC(c1cccc(S(N)(=O)=O)c1)N(C)CCOc1ccccc1` (centres unmarked) | 1.349 | -37.49 | 4.216 |
| `c1ccc(C2CN(CCc3ccncc3)CCO2)cc1` (centres unmarked) | 3.638 | -21.79 | 0.241 |
| `CCc1nc(CN2CCCC2C(=O)NC2CC2)cs1` (centres unmarked) | 0.5796 | -6.454 | 0.6337 |
| `Cc1ccc(NC(=O)Nc2c(O)oc3ccccc3c2=O)cc1` | 1.242 | -20.14 | 0.7653 |
| `Cc1cnn(CCC(=O)N2CCN(c3nc(C)cs3)CC2)c1` | 9.185 | - | -0.7712 |
| `O=C(NCCc1nnc2n1CCCCC2)N1CCC2(CCOC2)C1` (centres unmarked) | 6.177 | 2.966 | 2.213 |
| `O=C(NCCCN1CCCC1=O)Nc1ccc(Br)cc1Cl` | -0.1516 | -1.076 | 3.903 |
| `CC(c1nc(C2CC2)no1)N1CCN(Cc2cccc(C#N)c2)CC1` (centres unmarked) | 2.298 | 1.128 | -3.368 |
| `CC1CCC(O)(Cn2ncnc2-c2cccc(C#N)c2)CC1` (centres unmarked) | 4.722 | 10.7 | 2.314 |
| `Cc1ccc(N2CCCC(NCc3sccc3C)C2)nn1` (centres unmarked) | -0.248 | -5.034 | -3.106 |
| `Cc1ccc(CC(=O)N2CCCC(n3ccnc3C(C)C)C2)cn1` (centres unmarked) | 1.151 | -25.47 | 4.042 |
| `CS(=O)(=O)Cc1ccc(C(=O)NCc2ccc(Cl)cc2Cl)cc1` | 6.449 | 1.597 | -1.515 |
| `CC1(C)CC(NC(=O)c2cnn(-c3ccccc3F)c2N)CC(C)(C)N1` | 2.479 | 7.072 | 0.4854 |
| `O=C(O)C(F)(F)F.[H][C@@]12CCCO[C@]1([H])[C@H](NC(=O)CC1CC1)CN(c1ncccn1)C2` | - | 2.592 | - |
| `CCN(CC1CN(CC2CCC2)CCO1)c1cccnn1` (centres unmarked) | 2.379 | -28.37 | 0.8264 |
| `CC(C)N(C)Cc1cn2c(n1)CN(C(=O)Cc1ccccc1)CC2` | 2.742 | - | -10.18 |
| `NC(=O)N1CCCC(c2nc(-c3cccnn3)no2)C1` (centres unmarked) | 1.565 | 3.311 | - |
| `NC(=O)NC(=O)CCSCc1cc(F)cc2cccnc12` | 3.919 | -17 | 1.899 |
| `Cc1cc(C(=O)N(C)CC(F)(F)C(F)(F)F)ccc1-n1cncn1` | 3.517 | 4.202 | -1.613 |
| `CN(Cc1ccncc1)C1COC2(CCN(c3ncc(F)cn3)CC2)C1` (centres unmarked) | 6.982 | - | 4.684 |
| `CCN(CC1CCOC1)C(=O)Nc1ccc(N2CCCCC2)nc1` (centres unmarked) | 0.6626 | 6.182 | 7.895 |
| `CN(C)CCO[C@H]1CN(C(=O)c2ccc[nH]2)[C@@H]2COC[C@H]12` | 6.985 | - | -5.882 |
| `O=C(c1ccco1)N1C[C@H]2CCCN(CC3CCOCC3)[C@H]2C1` | 5.177 | - | -1.673 |
| `COCCN1CC(C(=O)NCc2ccc(C)s2)CC1=O` (centres unmarked) | 5.424 | -0.5963 | 7.645 |
| `Cc1nc(NC2CCCC2)cc(C2CCN2C(=O)c2cnn(C)c2)n1` (centres unmarked) | 6.267 | 13.13 | -0.4902 |
| `O=C(CCCNC(=O)Nc1ccc(F)cc1)Nc1cn[nH]c1` | 5.974 | -9.183 | 5.579 |
| `Cc1cc(-c2nccs2)nc(C2CCN(Cc3ccncc3)CC2)n1` | -0.8059 | - | 2.184 |
| `COc1ncccc1NC(=O)C1CCS(=O)(=O)C1` (centres unmarked) | 10.51 | 2.435 | 1.205 |
| `Cc1noc(C)c1CN(C)c1nccc(C(F)(F)F)n1` | 2.306 | 1.427 | -3.548 |
| `C/C=C(\C)CN(CCN1CCOCC1)Cc1ccco1` | 5.775 | -12.89 | -0.2469 |
| `CNC(=O)C1(Cc2cc(C(C)C)no2)CCN(Cc2cccnc2)C1` (centres unmarked) | 3.113 | 9.335 | -6.412 |
| `[H][C@@]12CN(C(=O)C3CCOCC3)C[C@@]1([H])N(CC(C)C)C(=O)CO2` | - | 1.064 | - |
| `O=C(NC[C@H]1OC[C@@H](N(CC2CC2)CC2CC2)[C@@H]1O)Nc1ccccc1` | 3.96 | -3.998 | -0.6623 |
| `CNC(=O)CCN1CCCCCC1c1ccc(C)o1` (centres unmarked) | -4.746 | -4 | -1.463 |
| `Cc1cnc(CN(C)C2CCN(CC(=O)Nc3nccs3)C2)o1` (centres unmarked) | 0.4736 | -13.67 | 1.312 |
| `Cn1cc(CNCC2Cn3nnc(-c4ccccc4)c3CO2)cn1` (centres unmarked) | 0.1662 | -8.984 | 2.445 |
| `Cc1noc2ncc(C(=O)N3CCCC3c3ccsc3)cc12` (centres unmarked) | -1.575 | 2.391 | 8.182 |
| `O=C1CC(c2ccc(F)cc2)c2cnn(C3CCCC3)c2N1` (centres unmarked) | 3.185 | - | 2.583 |
| `CCN(Cc1cscn1)CC1(C)Cc2c(N)nc(N)nc2O1` (centres unmarked) | 0.4695 | -2.22 | -4.731 |
| `c1cnn(Cc2nnc3n2CCCN(CC2CCOCC2)C3)c1` | -1.876 | - | -0.1287 |
| `CN(C)C(=O)CN1CCOCC2(C1)CN(c1ncc(F)cn1)CCO2` (centres unmarked) | 4.406 | - | 1.485 |
| `CN1CCN(S(=O)(=O)NCC2COc3ccccc3C2)CC1` (centres unmarked) | 2.92 | 4.795 | 3.299 |
| `COc1ncccc1C(=O)N1CCc2c(ncnc2N2CCOCC2)C1` | 2.684 | 1.85 | -2.564 |
| `COCCn1ccc2cc(C(=O)N3CCN(S(C)(=O)=O)CC3)ccc21` | 3.259 | 5.487 | 2.906 |
| `COCCNC(=O)C(C)N1CCN(C)CC1` (centres unmarked) | 2.775 | - | 6.176 |
| `CN(C)C(=O)CN1CCCC(c2cncc(-c3cccc(Cl)c3)n2)C1` (centres unmarked) | 0.4336 | -23.54 | 4.337 |

Repeated from the top, 4 entries:

| compound | PfKRS1 | Toxoplasma | CoaBC |
|---|---|---|---|
| `CC(=O)N1CCN(c2ccccc2CNc2cncc(C)c2)CC1` | 1.33 | 2.498 | 0 |
| `Cc1cc(C(=O)Nc2ccc3c(c2)N(C)CCN(C)C3)on1` | -0.02347 | 7.169 | -17.51 |
| `COc1cccc(CC2CN(C(=O)c3ccnn3C)CCO2)c1` (centres unmarked) | 4.98 | 4.282 | -5.447 |
| `Cc1sc(Br)cc1S(=O)(=O)NCCCN` | 3.215 | - | 2.733 |

Source: ChEMBL document CHEMBL3988442, “University of Dundee, Small-Polar-MMV Screening Library” (2021).